PubChem BioAssay AID248 (DTP/NCI, 2004)
The list is a part of this screen's results and no random one: it is rich in T/C values a quarter to a half above the control, in often repeated tests (any T/C) and in doses without a T/C. Other doses and runs of a compound stand elsewhere. T/C: endpoint of the treated group in % of that of the vehicle group. Some doses have a count of surviving animals in place of a T/C: the source files T/C as zero there, which appears to mark a toxic dose or a test without result, not a measured value. Some doses without a T/C left all or most animals alive at the check, yet need not have been tolerated: the source hardly ever lists a survival T/C far under the control, and the zero likely stands for such cases as well. Survivors were counted at the toxicity check, usually on the fifth day, unless a day is given; later deaths do not show. Schedules are NCI's codes, taken here to give the interval after Q, in days (D) or hours (H), and the number of doses after X. Some doses were run more than once; the values are given in rising order. Some schedules carry Z or #; the key to these is not given. Where survival is the endpoint, the PubChem record calls one and a half times the control and up active, and a quarter to a half above the control has no call in these data; cut-offs in other NCI protocols can differ. Some T/C values carry the count of animals alive at the toxicity check (mostly the fifth day); where none is given, no animal had died by that day.

Tested on: L1210 leukemia ip in BDF1 mice, survival T/C
Test: NCI In Vivo Anticancer Drug Screen. Data for tumor model L1210 Leukemia (intraperitoneal) in B6D2F1 (BDF1) mice
Conditions: T/C endpoint: mean survival time, higher T/C = longer survival
[1] = dose: 400.0 mg/kg/injection, schedule: Q01DX001 (ip), vehicle: other
[2] = dose: 500.0 mg/kg/injection, schedule: Q01DX001 (ip), vehicle: other
[3] = dose: 50.0 mg/kg/injection, schedule: Q01DX009 (ip), vehicle: saline
[4] = dose: 400.0 mg/kg/injection, schedule: Q04DX003 (ip), vehicle: saline with Tween-80
[5] = dose: 200.0 mg/kg/injection, schedule: Q01DX009 (ip), vehicle: saline with Tween-80
[6] = dose: 200.0 mg/kg/injection, schedule: Q04DX003 (ip), vehicle: Klucel (hydroxypropylcellulose) (HPC)
[7] = dose: 400.0 mg/kg/injection, schedule: Q04DX003 (ip), vehicle: Klucel (hydroxypropylcellulose) (HPC)
[8] = dose: 200.0 mg/kg/injection, schedule: Q01DX001 (ip), vehicle: saline
[9] = dose: 400.0 mg/kg/injection, schedule: Q01DX001 (ip), vehicle: saline
[10] = dose: 400.0 mg/kg/injection, schedule: Q04DX002 (ip), vehicle: Klucel (hydroxypropylcellulose) (HPC)

CCCSc1nc(N)nc2nc[nH]c12
T/C (dose: 6.6 mg/kg/injection, schedule: Q01DX Z (ip), vehicle: carboxymethylcellulose (CMC)): 136 % of control | T/C (dose: 6.7 mg/kg/injection, schedule: Q01DX Z (ip), vehicle: carboxymethylcellulose (CMC)): 125 % of control | T/C (dose: 10.0 mg/kg/injection, schedule: Q01DX Z (ip), vehicle: carboxymethylcellulose (CMC)): 133, 136, 137 [5 of 6 alive], 147, 172 % of control | T/C (dose: 17.0 mg/kg/injection, schedule: Q01DX Z (ip), vehicle: carboxymethylcellulose (CMC)): 139 % of control | T/C (dose: 19.0 mg/kg/injection, schedule: Q01DX009 (ip), vehicle: Klucel (hydroxypropylcellulose) (HPC)): 133 % of control | T/C (dose: 26.0 mg/kg/injection, schedule: Q01DX Z (ip), vehicle: carboxymethylcellulose (CMC)): 138 % of control | T/C (dose: 45.0 mg/kg/injection, schedule: Q01DX009 (ip), vehicle: Klucel (hydroxypropylcellulose) (HPC)): 137 % of control | T/C (dose: 60.0 mg/kg/injection, schedule: Q01DX Z (ip), vehicle: carboxymethylcellulose (CMC)): 135 % of control | survivor count (dose: 62.0 mg/kg/injection, schedule: Q01DX001 (ip), vehicle: other): 10 of 10 | T/C (dose: 65.0 mg/kg/injection, schedule: Q01DX009 (ip), vehicle: Klucel (hydroxypropylcellulose) (HPC)): 139 % of control | T/C (dose: 80.0 mg/kg/injection, schedule: Q01DX Z (ip), vehicle: carboxymethylcellulose (CMC)): 130, 133, 147, 161 % of control | T/C (dose: 100.0 mg/kg/injection, schedule: Q01DX009 (ip), vehicle: saline): 142 % of control | T/C (dose: 120.0 mg/kg/injection, schedule: Q01DX Z (ip), vehicle: carboxymethylcellulose (CMC)): 138 % of control | T/C (dose: 132.0 mg/kg/injection, schedule: Q01DX009 (ip), vehicle: Klucel (hydroxypropylcellulose) (HPC)): 148 % of control | survivor count (dose: 180.0 mg/kg/injection, schedule: Q01DX Z (ip), vehicle: carboxymethylcellulose (CMC)): 3 of 6 | T/C (dose: 200.0 mg/kg/injection, schedule: Q01DX009 (ip), vehicle: Klucel (hydroxypropylcellulose) (HPC)): 137 % of control | T/C (dose: 250.0 mg/kg/injection, schedule: Q## X001 (ip), vehicle: other): 125 % of control | survivor count (dose: 270.0 mg/kg/injection, schedule: Q01DX Z (ip), vehicle: carboxymethylcellulose (CMC)): 1 of 6 | T/C (dose: 300.0 mg/kg/injection, schedule: Q01DX009 (ip), vehicle: Klucel (hydroxypropylcellulose) (HPC)): 143 % of control | survivor count (dose: 320.0 mg/kg/injection, schedule: Q01DX Z (ip), vehicle: carboxymethylcellulose (CMC)): 1 of 6 | T/C [1]: 125 % of control [7 of 10 alive] | survivor count (dose: 400.0 mg/kg/injection, schedule: Q01DX009 (ip), vehicle: saline): 3 of 6 | T/C [2]: 122 [9 of 10 alive], 132 [7 of 10 alive], 141 % of control | survivor count [2]: 4 of 10 | survivor count (dose: 500.0 mg/kg/injection, schedule: Q## X001 (ip), vehicle: other): 10 of 10 | survivor count (dose: 600.0 mg/kg/injection, schedule: Q01DX001 (ip), vehicle: other): 4 of 10 | survivor count (dose: 600.0 mg/kg/injection, schedule: Q## X001 (ip), vehicle: other): 5 of 10 | survivor count (dose: 640.0 mg/kg/injection, schedule: Q01DX Z (ip), vehicle: carboxymethylcellulose (CMC)): 0 of 6

N#CC(C#N)=Cc1ccc(Cl)cc1
survivor count [1]: 0 of 4

O=[N+]([O-])c1cccc(C[n+]2ccccc2C2OCCO2)c1
survivor count (dose: 55.0 mg/kg/injection, schedule: Q01DX009 (ip), vehicle: saline): 3 of 6 | survivor count (dose: 80.0 mg/kg/injection, schedule: Q01DX009 (ip), vehicle: saline): 3 of 6

CN(C)c1ncnc2c1ncn2Cc1ccccc1
survivor count (dose: 400.0 mg/kg/injection, schedule: Q01DX001 (ip), vehicle: saline with Tween-80): 0 of 3

C[N+](C)(C)N=C1CCC2(CC1)c1ccccc1-c1ccccc12
survivor count [3]: 1 of 6 | survivor count (dose: 100.0 mg/kg/injection, schedule: Q04DX003 (ip), vehicle: saline with Tween-80): 3 of 6 | survivor count (dose: 200.0 mg/kg/injection, schedule: Q04DX003 (ip), vehicle: saline with Tween-80): 0 of 6 | survivor count [4]: 0 of 6

Clc1nc(Cl)nc(-c2cccn2-c2ccccc2)n1
survivor count (dose: 12.5 mg/kg/injection, schedule: Q01DX009 (ip), vehicle: saline with Tween-80): 6 of 6 | survivor count (dose: 25.0 mg/kg/injection, schedule: Q01DX009 (ip), vehicle: saline with Tween-80): 5 of 6 | survivor count (dose: 50.0 mg/kg/injection, schedule: Q01DX009 (ip), vehicle: saline with Tween-80): 0 of 6 | survivor count (dose: 100.0 mg/kg/injection, schedule: Q01DX009 (ip), vehicle: saline with Tween-80): 0 of 6 | survivor count [5]: 0 of 6 | survivor count (dose: 200.0 mg/kg/injection, schedule: Q04DX003 (ip), vehicle: saline): 5 of 6 | survivor count (dose: 400.0 mg/kg/injection, schedule: Q04DX003 (ip), vehicle: acetone): 3 of 6

CCCCNc1c(C2=NCCN2)cnc2c1cnn2CC
survivor count [6]: 0 of 3 | survivor count [7]: 0 of 3

CC1(C)N=C(N)N=C(N)N1c1ccc(C#N)cc1
survivor count [8]: 0 of 6 | survivor count [9]: 0 of 6

c1ccc([P+]2(c3ccccc3)CC[P+](c3ccccc3)(c3ccccc3)CC2)cc1
survivor count (dose: 150.0 mg/kg/injection, schedule: Q01DX001 (ip), vehicle: saline): 0 of 6 | survivor count (dose: 300.0 mg/kg/injection, schedule: Q01DX001 (ip), vehicle: saline): 0 of 6

NC(=O)c1cc[n+](-c2ccc([N+](=O)[O-])cc2[N+](=O)[O-])cc1
survivor count (dose: 400.0 mg/kg/injection, schedule: Q04DX003 (ip), vehicle: saline): 3 of 6

C=CCOc1cc(C)cc(C)c1C
T/C [6]: 126 % of control

CCc1cccc(CC)c1N=Cc1ccccc1O
survivor count (dose: 400.0 mg/kg/injection, schedule: Q01DX009 (ip), vehicle: carboxymethylcellulose (CMC)): 3 of 3

O=C(O)C(Nc1cccc2ccccc12)c1ccccc1 (stereo not drawn)
survivor count [10]: 1 of 3

COC1OC2COC(c3ccccc3)OC2C(O)C1OS(=O)(=O)c1ccc(C)cc1 (stereo not drawn)
survivor count [4]: 1 of 6

O=C(CCCN1CC=C(n2c(=O)[nH]c3ccccc32)CC1)c1ccc(F)cc1
survivor count [6]: 2 of 4 | survivor count [7]: 4 of 4

CN(C)CC1CCCCC1OC(=O)c1ccccc1 (stereo not drawn)
survivor count [5]: 0 of 3

OCc1ccn2c1[C@@H](O)CC2
T/C (dose: 25.0 mg/kg/injection, schedule: Q01DX009 (ip), vehicle: saline): 143 % of control | T/C (dose: 50.0 mg/kg/injection, schedule: Q01DX009 (ip), vehicle: acetone): 147 % of control | T/C [3]: 140 % of control | T/C (dose: 100.0 mg/kg/injection, schedule: Q01DX001 (ip), vehicle: saline, evaluated on day 30): 129 % of control | T/C (dose: 100.0 mg/kg/injection, schedule: Q01DX001 (ip), vehicle: saline, run until all animals had died): 133 % of control | T/C (dose: 100.0 mg/kg/injection, schedule: Q01DX009 (ip), vehicle: acetone): 143 % of control | survivor count (dose: 150.0 mg/kg/injection, schedule: Q01DX009 (ip), vehicle: saline): 6 of 6 | T/C [8]: 139 % of control | survivor count (dose: 200.0 mg/kg/injection, schedule: Q01DX009 (ip), vehicle: saline): 4 of 6 and 6 of 6 | survivor count (dose: 225.0 mg/kg/injection, schedule: Q01DX009 (ip), vehicle: saline): 4 of 6 | survivor count (dose: 335.0 mg/kg/injection, schedule: Q01DX009 (ip), vehicle: saline): 2 of 6

[O-][n+]1cc(-c2ccccc2)cc2ccccc21
survivor count [8]: 2 of 4 | survivor count [9]: 0 of 4

CC(=O)c1cccc(NC(=S)NC(=O)/C=C/c2ccccc2)c1
survivor count [5]: 4 of 6 | survivor count [4]: 0 of 6

O=C(NCc1ccncc1)C(c1ccccc1)c1ccccc1
survivor count [10]: 3 of 3
